## Percent effect of library compounds

The chains behind the UniProt entries cited, without tags or fusion partners. Residues count along the entry.
UniProt A4I591, 1-473: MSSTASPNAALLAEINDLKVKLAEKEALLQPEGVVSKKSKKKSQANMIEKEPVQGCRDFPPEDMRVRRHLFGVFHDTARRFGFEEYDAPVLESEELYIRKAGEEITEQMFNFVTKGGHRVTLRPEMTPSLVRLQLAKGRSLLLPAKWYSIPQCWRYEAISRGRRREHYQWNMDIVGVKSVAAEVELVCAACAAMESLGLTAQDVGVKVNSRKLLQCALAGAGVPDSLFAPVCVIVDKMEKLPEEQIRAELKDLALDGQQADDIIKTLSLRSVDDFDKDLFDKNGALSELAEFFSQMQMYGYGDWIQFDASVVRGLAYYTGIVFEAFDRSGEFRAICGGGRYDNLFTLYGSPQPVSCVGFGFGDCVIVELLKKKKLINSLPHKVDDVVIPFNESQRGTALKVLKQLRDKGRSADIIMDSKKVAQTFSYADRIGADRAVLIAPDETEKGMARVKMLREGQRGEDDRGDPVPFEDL
UniProt P9WNZ1, whole entry: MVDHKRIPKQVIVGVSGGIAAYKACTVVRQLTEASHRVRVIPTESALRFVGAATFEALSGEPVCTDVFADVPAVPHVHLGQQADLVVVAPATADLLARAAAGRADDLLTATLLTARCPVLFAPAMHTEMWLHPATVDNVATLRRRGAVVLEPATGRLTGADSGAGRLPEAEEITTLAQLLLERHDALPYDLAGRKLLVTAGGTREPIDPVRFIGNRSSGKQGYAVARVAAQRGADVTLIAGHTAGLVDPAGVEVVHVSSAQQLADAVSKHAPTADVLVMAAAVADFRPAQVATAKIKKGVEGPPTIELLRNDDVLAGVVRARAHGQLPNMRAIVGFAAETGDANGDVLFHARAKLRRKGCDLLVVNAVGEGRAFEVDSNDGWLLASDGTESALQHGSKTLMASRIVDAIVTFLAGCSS
UniProt Q8IDJ8, 1-583: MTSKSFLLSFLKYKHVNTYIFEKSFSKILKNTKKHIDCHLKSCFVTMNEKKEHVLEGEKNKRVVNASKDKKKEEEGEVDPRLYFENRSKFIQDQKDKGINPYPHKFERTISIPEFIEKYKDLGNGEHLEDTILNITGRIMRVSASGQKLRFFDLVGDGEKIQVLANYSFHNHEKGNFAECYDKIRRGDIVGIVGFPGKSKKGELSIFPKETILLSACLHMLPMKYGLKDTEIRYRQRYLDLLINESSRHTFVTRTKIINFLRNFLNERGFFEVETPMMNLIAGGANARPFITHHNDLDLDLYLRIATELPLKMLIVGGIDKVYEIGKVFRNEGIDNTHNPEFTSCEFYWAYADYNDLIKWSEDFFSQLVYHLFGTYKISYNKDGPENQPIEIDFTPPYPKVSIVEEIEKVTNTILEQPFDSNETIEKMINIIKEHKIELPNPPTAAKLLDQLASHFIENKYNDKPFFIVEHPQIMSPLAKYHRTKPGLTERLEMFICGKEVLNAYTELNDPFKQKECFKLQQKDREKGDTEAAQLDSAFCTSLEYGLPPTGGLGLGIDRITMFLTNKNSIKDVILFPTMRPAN
UniProt P9WFT3, whole entry: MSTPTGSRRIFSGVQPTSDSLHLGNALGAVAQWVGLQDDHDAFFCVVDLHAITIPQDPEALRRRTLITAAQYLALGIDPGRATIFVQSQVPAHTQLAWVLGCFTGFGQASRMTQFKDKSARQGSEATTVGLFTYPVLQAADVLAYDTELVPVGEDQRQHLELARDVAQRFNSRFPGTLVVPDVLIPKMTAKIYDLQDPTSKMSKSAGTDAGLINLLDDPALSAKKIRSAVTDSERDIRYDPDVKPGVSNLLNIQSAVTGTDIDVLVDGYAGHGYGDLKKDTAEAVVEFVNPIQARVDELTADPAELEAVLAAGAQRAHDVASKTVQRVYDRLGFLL

Source: ChEMBL document CHEMBL3988442, “University of Dundee, Small-Polar-MMV Screening Library” (2021).

Results are given as percent effect. How 0% and 100% were set is not recorded. Most values in the screen are low, and negative values occur. The compounds are a random part of those screened. Two or more numbers in one place are separate tests of the same structure; such repeats can differ widely. A dash means the value is not listed here; it may have been measured.

LiHisRS: 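Enzyme assay of histidyl-tRNA synthetase; the read-out is not stated. Target: Histidine-tRNA ligase, Leishmania infantum (UniProt A4I591). Tested at 30 µM. The record gives no direction; compounds that gave an IC50 in retests scored well above the rest, so higher reads as stronger inhibition. The assay is labelled LdHisRS but filed under L. infantum. Of about 69,000 compounds tested this way, about 410 (0.6%) reached 50% or more in at least one test.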
CoaBC: 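Enzyme assay of CoaBC with a phosphate dye (Biomol Green) read at 650 nm. Target: Coenzyme A biosynthesis protein CoaBC, Mycobacterium tuberculosis (UniProt P9WNZ1). Tested at 30 µM. Higher reads as stronger inhibition, judged from the few compounds that gave an IC50. Most strong results did not repeat in a second test. Of about 67,000 compounds tested this way, about 40 (0.06%) reached 50% or more in at least one test.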
PfKRS1: 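Enzyme assay of the cytosolic lysyl-tRNA synthetase in 384-well plates, read by luminescence. Target: Lysine-tRNA ligase, Plasmodium falciparum 3D7 (UniProt Q8IDJ8). Concentration: 30 µM. Direction is inferred from only a few compounds that gave an IC50; most scored high, so higher reads as stronger inhibition. Of about 69,000 compounds tested this way, about 49 (0.071%) reached 50% or more in at least one test.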
MtTrpRS: 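Tryptophan-tRNA ligase, Mycobacterium tuberculosis (UniProt P9WFT3). Enzyme assay of tryptophanyl-tRNA synthetase; the read-out is not stated. Tested at 10 µM. Direction is not recorded; retested compounds ran higher, which suggests that high means inhibition. Of about 65,000 compounds tested this way, about 64 (0.098%) reached 50% or more in at least one test.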

structure | LiHisRS | CoaBC | PfKRS1 | MtTrpRS
COCC(=O)N1CCC2(CC1)CC(COC)N(c1ncccn1)C2 (centres undefined) | 14.29% | 4.886% | 2.733% | 2.929%
Cn1c(CN2CCOC(c3nc(C(C)(C)C)n[nH]3)C2)nnc1C1CC1 (centres undefined) | 26.67% | 11.28% | 3.735% | 5.082%
CC1CCN(C(=O)Cn2cc(I)cn2)CC1 | 14.75% | 9.871% | 4.149% | -0.4397%
CN1C(=O)C(C)(C)COc2cc(NS(=O)(=O)c3ccccc3F)ccc21 | 15.73% | 2.768% | 2.989% | 1.027%
CCCc1noc(CCC(=O)N2CCCC2c2cccc(OC)c2)n1 (centres undefined) | 13.56% | 0.7874% | 0.4736% | -9.857%
COc1c(CNCc2cccc(CN(C)C)c2)c(C)nn1C | 35.71% | 6.762% | 5.346% | -3.052%
CC(=O)N1CCCN(C(=O)CCc2c(C)noc2C)CC1 | 16.8% | -3.191% | 2.268% | 0.4717%
CCc1nc(C2CCCN(C(=O)c3cccc4c3ccn4C)C2)no1 (centres undefined) | 9.231% | 8.432% | 1.918% | -1.652%
Nc1nc(Nc2ccccc2)cc(N2CCNCC2)n1 | 9.901% | 4.369% | 4.256% | -
Cc1ccc(-c2noc([C@@H]3C[C@H](NC(=O)NC(C)C)CN3C)n2)cc1 | 12.16% | 3.311% | -0.3279% | -2.959%
CC(C)(C)C(=O)N1CCC(COCc2ccccc2)C1 (centres undefined) | 8% | -2.066% | 1.346% | -2.998%
O=C(Cc1cccc(F)c1)NCCNCc1cccnc1 | 10.43% | 4.258% | 1.071% | 7.692%
Cn1ccnc1CN1CCN(CC(=O)NCc2cccs2)CC1 | 1.786% | 12.06% | -2.077% | 6.772%
Cc1nsc(C(=O)NCCCc2ccccc2)n1 | 6.667% | -3.777% | 4.114% | 2.055%
COc1ccccc1OCCNC(=O)NCc1nc(C)no1 | 5.759% | 4.783% | 5.641% | -3.95%
Cc1cnn(CC2CCCN2Cc2ncc(-c3ccccc3)o2)c1 (centres undefined) | 28.57% | 2.728% | 2.938% | -3.678%
Cc1ccc(OC2(C(=O)O)CCN(C/C=C/c3ccco3)CC2)cc1 | 13.11% | -3.863% | 4.549% | -2.375%
Cc1oncc1C(=O)N1CC2CC1(C(=O)NCc1ccco1)C2 | 11.65% | 5.852% | 5.048% | -2.991%
COCc1cccc(S(=O)(=O)NCc2cnn(C)c2C)c1 | 14.71% | -2.851% | 1.649% | 1.09%
Cc1cnn(CC2CN(Cc3nc(C)c(C)o3)CCO2)c1 (centres undefined) | 6.25% | 2.427% | -1.911% | 17.09%
N#CC(NC(=O)CNC(=O)c1ccccc1)c1ccsc1 (centres undefined) | 4.425% | 3.271% | -0.1852% | -2.037%
CC1CN(CCOc2cccc(C#N)c2)CCN1Cc1nccn1C (centres undefined) | 7.273% | 6.888% | -1.516% | -7.733%
CN(Cc1ccccc1)C(=O)CCNS(=O)(=O)c1cccnc1 | 16.96% | -17.36% | 7.091% | -0.07241%
Cc1cc(N2CCN(C(=O)c3cc(Cl)c[nH]3)CC2)nc(C)n1 | 12.9% | 0.1212% | -0.3233% | 0.2694%
C[C@H]1C[C@H]2CN(C(=O)CCc3ccccc3)CC[C@H]2O1 | 10% | 4% | 0.8061% | -4.378%
Cc1n[nH]c(CCC(=O)N2CCOC(Cc3ccc(F)cc3)C2)c1C (centres undefined) | -7.895% | -1.613% | 0.7024% | -2.807%
N#CCCN(Cc1ccco1)C(=O)c1ccc(OCC2CC2)cc1 | 9.375% | -1.085% | -1.346% | -0.7498%
COC(=O)c1ccc(Cn2cccc(C(F)(F)F)c2=O)c(OC)c1 | -13.33% | -1.703% | -4.484% | -0.2179%
CC(=O)Nc1cnc(Oc2ccccc2F)nc1 | 10.43% | 14.16% | 7.526% | -1.444%
O[C@@H]1C[C@H]2CN(Cc3ccsc3)[C@@H](Cc3ccccc3)CN2C1 | 4.027% | -1.598% | 1.02% | -1.383%
CSCCC(NC(=O)c1nc(SC)ncc1Cl)C(=O)O (centres undefined) | 16.49% | 1.35% | 2.034% | -
Cc1cc(CN2CCN(c3ccc4nncn4n3)C(C)C2)on1 (centres undefined) | 1.739% | 2.194% | -0.6938% | 13.15%
Cc1ccc(S(N)(=O)=O)cc1C(=O)NC1CCCC1 | 22.45% | 6.116% | 5.706% | 1.468%
NCCN1CCC(c2nnc(Cn3ccnc3)n2C2CC2)CC1 | 16.67% | -29.34% | 6.271% | -1.443%
COc1c(C)cnc(CNC(=O)c2cc(C)nc3onc(C)c23)c1C | 19.44% | -3.175% | 2.997% | -3.645%
Cc1cnccc1N1CCCN(C(=O)CCn2ccnc2C)CC1 | 20% | 0% | 2.569% | 3.112%
CC1c2ncc(CNC(=O)C3CC3)n2CCN1CC1CCC1 (centres undefined) | 11.11% | 8.015% | 3.208% | -6.294%
CC(c1nc(C2CC2)no1)N1CCN(Cc2noc(C3CC3)n2)CC1 (centres undefined) | 1.709% | -1.877% | -0.0268% | -3.237%
CCc1cccc(CC(=O)NC2CCN(C(=O)NC(C)(C)C)CC2)c1 | 3.947% | -2.581% | -0.3681% | -3.748%
COC1CCN(C(=O)c2ccccc2NCc2cccnc2)CC1 | 10.2% | 8.43% | 1.578% | -1.322%
O=c1[nH]c(NC2CCCC2)nc2nccc(-c3cccs3)c12 | 8.197% | -4.604% | 3.369% | -0.4724%
CC(=O)N1CCCc2sc(C(=O)NC3CC3)nc21 | 15.79% | 11.55% | 1.111% | -4.351%
CCN(Cc1ccccc1)C(=O)CCN1CC(O)C1 | 43.36% | 10.62% | 0.1164% | -5.638%
Cc1nc(C2CCCNC2)cc(N(Cc2c(C)nn(C)c2C)C2CC2)n1 (centres undefined) | 21.43% | 0.2049% | 4.585% | -3.61%
Cn1cc(NC(=O)N2CCC(NS(C)(=O)=O)CC2)ccc1=O | 91.49% | 27.2% & 5.291% | 43.93% | 1.411%
CCN1C(=O)CCC12CCCN(Cc1nccs1)C2 (centres undefined) | 7% | 3.832% | -1.788% | -4.17%
CC(C)N(Cc1nc2c(cnn2C)c(=O)[nH]1)c1ccccc1 | -8.511% | 0.7772% | 1.594% | 2.45%
Cc1nn(C)c2c(N3CCCC3)nc(C3CC3)nc12 | 19.35% | 1.908% | 6.325% | 3.083%
Clc1ccccc1CN1CCc2nc(C3CCCNC3)ncc2C1 (centres undefined) | 26% | 4.089% | 0.1597% | -
CCOC[C@@H]1CCC[C@@]12CN(Cc1nccs1)CCO2 | 10.95% | 9.326% | 3.539% | -1.233%
CSC(C)(C)CNC(=O)NC1CCC1 | 4.464% | 2.893% | 8.532% | 4.562%
CCC(C)(C)NC(=O)CN(Cc1cccc(O)c1)C1CCC(O)CC1 (centres undefined) | 13.68% | 10.26% | 8.227% | -8.066%
CC(C)Oc1ccc(CNC(=O)NCc2ccncc2)cc1F | 23.85% | 10.34% | 0.4774% | -4.354%
CCCNC(=O)c1cc2c(s1)CCN2c1ncccn1 | 29.73% | 1.238% | 5.374% | -
CCCN1CCCC2(CCN(S(=O)(=O)N3CCC(OC)CC3)C2)C1=O (centres undefined) | 0% | -1.023% | 0.6257% | -1.102%
CN(CC1CCCO1)C1CCN(CCc2ccccn2)CC1 (centres undefined) | -3.077% | -5.396% | 6.901% | -3.013%
CN(C)C(=O)CN1CCC2(CC1)COC2 | 21.36% | 2.036% | 7.893% | -4.77%
CN(Cc1ccc(Br)o1)C(=O)Nc1cccnc1 | 13.33% | 6.612% | 2.5% | -4.352%
NC(=O)COc1ccc(CNCc2cc(F)ccc2F)cc1 | 3.704% | -1.02% | 1.963% | -0.7638%
CCN(CC1CCCCO1)C(=O)CCNC(=O)c1ccccc1F (centres undefined) | 12.82% | -0.4% | 9.408% | -6.172%
CCNC(=O)CCC(=O)Nc1nc(C)c(Cc2ccc(F)cc2)s1 | 2.857% | 11.02% | 0.232% | 0.3358%
Cc1nccn1[C@@H]1CC[C@@H](NC(=O)CCCn2cncn2)[C@H]1O | 11.59% | 3.154% | 0.05691% | 10.09%
c1ccc(CCN2CCC(OCC3CCCCO3)CC2)nc1 (centres undefined) | 10.62% | 1.635% | 5.686% | -0.8163%

Some entries from above, unchanged:

structure	LiHisRS	CoaBC	PfKRS1	MtTrpRS
CC1CCN(C(=O)Cn2cc(I)cn2)CC1	14.75%	9.871%	4.149%	-0.4397%
Cc1cc(CN2CCN(c3ccc4nncn4n3)C(C)C2)on1 (centres undefined)	1.739%	2.194%	-0.6938%	13.15%
O=c1[nH]c(NC2CCCC2)nc2nccc(-c3cccs3)c12	8.197%	-4.604%	3.369%	-0.4724%
CN(C)C(=O)CN1CCC2(CC1)COC2	21.36%	2.036%	7.893%	-4.77%